In publication PMC4397538 (2015):
Results are given in words; binding and its absence hold for the method and conditions named.

Target: T1, Biotin-BH4-Bcl-XL
T1 sequence (peptide, biotin on the N-terminus (also used without the biotin tag)): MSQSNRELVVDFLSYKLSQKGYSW
Test: SPR; Biacore T200; biotin peptides immobilised on different channels of a streptavidin-coated sensor chip; purified GST-fusion proteins flowed over at the indicated concentrations; binding to the scrambled peptide subtracted; both purified

B1: GST-tagged IP3R1 domain 3 (mouse IP3R1, a.a. 923-1581) (protein)
chain: SIHGVGELMTQVVLRGGGFLPMTPMAAAPEGNVKQAEPEKEDIMVMDTKLKIIEILQFILNVRLDYRISCLLCIFKREFDESNSQSSETSSGNSSQEGPSNVPGALDFEHIEEQAEGIFGGSEENTPLDLDDHGGRTFLRVLLHLTMHDYPPLVSGALQLLFRHFSQRQEVLQAFKQVQLLVTSQDVDNYKQIKQDLDQLRSIVEKSELWVYKGQGPDEPMDGASGENEHKKTEEGTSKPLKHESTSSYNYRVVKEILIRLSKLCVQESASVRKSRKQQQRLLRNMGAHAVVLELLQIPYEKAEDTKMQEIMRLAHEFLQNFCAGNQQNQALLHKHINLFLNPGILEAVTMQHIFMNNFQLCSEINERVVQHFVHCIETHGRNVQYIKFLQTIVKAEGKFIKKCQDMVMAELVNSGEDVLVFYNDRASFQTLIQMMRSERDRMDENSPLMYHIHLVELLAVCTEGKNVYTEIKCNSLLPLDDIVRVVTHEDCIPEVKIAYINFLNHCYVDTEVEMKEIYTSNHMWKLFENFLVDICRACNNTSDRKHADSILEKYVTEIVMSIVTTFFSSPFSDQSTTLQTRQPVFVQLLQGVFRVYHCNWLMPSQKASVESCIRVLSDVAKSRAIAIPVDLDSQVNNLFLKSHNIVQKTALNWRLSAR
binding: no binding
